Target: T1, FtuβCA (Francisella tularensis, UniProt Q5NH77)
T1 construct: gene cynT
Format: biochemical
Conditions: read-out: KI (μM)^a / FtuβCA; CO2 hydration, TRIS pH 8.3, 20 mM Na2SO4, 1 h preincubation at room temperature

Chains of the proteins cited; added tags and fusions are not shown. Residues count along the entry.
UniProt Q5NH77, 1-228: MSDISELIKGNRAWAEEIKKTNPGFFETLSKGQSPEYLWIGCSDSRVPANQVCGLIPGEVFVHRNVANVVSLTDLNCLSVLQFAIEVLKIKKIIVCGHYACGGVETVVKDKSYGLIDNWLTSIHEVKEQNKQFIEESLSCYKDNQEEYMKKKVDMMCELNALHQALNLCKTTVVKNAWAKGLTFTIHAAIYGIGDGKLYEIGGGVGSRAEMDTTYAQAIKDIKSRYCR

Structure (SMILES): CC(=O)Nc1nnc(S(N)(=O)=O)s1 [AAZ, acetazolamide, reference compound]
- Ki: 0.77 µM

Reference: paper PMC6830296 (Journal of Enzyme Inhibition and Medicinal Chemistry, 2019)
